Test results from patent publication US9744148B2, “Kallikrein 7 inhibitors” (SIXERA PHARMA AB, priority 2014, dated 2017).
The structures given here were assigned with low confidence; some may be wrong.

Sequences of proteins named here, by UniProt entry; tags and fusion partners are left off. Residues count along the entry.
UniProt P49862, 30-253 limits assumed: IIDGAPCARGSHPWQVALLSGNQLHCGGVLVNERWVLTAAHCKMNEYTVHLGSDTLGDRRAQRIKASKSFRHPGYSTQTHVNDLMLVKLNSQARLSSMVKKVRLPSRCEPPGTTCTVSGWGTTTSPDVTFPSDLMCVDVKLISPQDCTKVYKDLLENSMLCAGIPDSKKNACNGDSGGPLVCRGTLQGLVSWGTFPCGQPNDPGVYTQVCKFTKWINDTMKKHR

Target: Active human KLK7 (SCCE) (Homo sapiens (Human), UniProt P49862)
Assay: KLK7 Inhibitor Test
Type: biochemical
Details: substrate MeO-Suc-Arg-Pro-Tyr-pNA, pH 7.2, 37° C., absorbance at 405 nm
Description: KLK7 Inhibitor Test Substrate:(MeO-Suc-[…]), acetate salt, Peptide international, lot #906841, previously named S-2586 Enzyme: […] Buffer: 10 mM NaPhospate, 0.5 M NaCl, pH 7.2 […] 10 μl of substance in DMSO was added to wells giving final concentrations of 20 μ[…], and 0.15625 μM. 40 μl of active KLK7 (SCCE) (diluted to 12.5 μg/ml in activity buffer) was added all wells except blank to which activity buffer was added. […] The mean value V of each sample was calculated (n=2 for the substances and n=4 for the control). From the values of V the % of total activity was calculated as (Vinhibitor/Vcontrol (no inhibitor))×100. Plotting and calculation was then done in originPro. % of total activity (y) was plotted vs. log [inhibitor] (log x) and a function of dose response y=A1+(A2-A1)/(1+10^((LOG(x0)-x)*p)) where A1=Bottom platue, A2=Top platue, x0=EC50 and p=Hill slope was fitted to the curve. […] The IC50 values were used to identify KLK7 inhibitors according to the invention.

COc1ccc(NC(=O)C(C)OC(=O)CCC2CCCC2)cc1 (stereo not shown)
IC50: 150 nM
